This is an account of results in PMC8275550, “Developmental Neurotoxicity of Fipronil and Rotenone on a Human Neuronal In Vitro Test System” (Neurotoxicity Research, 2021).

In one series the test system is NT2 neurons. In kind it is cell-based, human. As to conditions: for DNT (IC50 ratio), neurite outgrowth: positive when IC50 ratio is larger than threshold 2.02; for DNT (sign diff), neurite outgrowth: positive when at least one concentration where specific endpoint differs significantly from control and from unspecific endpoint. An excerpt:
Two photographs/well at × 20 magnification were taken.

For series [1], the system named is NT2 precursor cells. Conditions: unspecific compounds; ref Stern et al. (2014) Arch. Toxicol. 88: 127–136; cited from earlier work.
The test system of series [2] is differentiating NT2 cells. In kind it is cell-based, human. As to conditions: for DNT (IC50 ratio), neuronal differentiation: positive when IC50 ratio is larger than threshold 2.77; for DNT (sign diff), neuronal differentiation: positive when at least one concentration where specific endpoint differs significantly from control and from unspecific endpoint. How it is done: As established in our previous study (Stern et al. [2014]), cells were seeded into 96-well plates (Corning Costar, Kaiserslautern, Germany) at 80,000 cells per well and incubated in DMEM/F12 with 10 µM retinoic acid (RA) for 4 days (one media change). Cells were incubated for further 5 days (one media change) in media containing 10 µM RA and up to seven concentrations of a test compound. On day 9 (5-day exposition), cell viability was measured using a resazurin reduction assay (Trinova Biochem, Giessen, Germany). Subsequently, cells were fixed for 15 min in PFA and immunolabeled for ß-tubulin type III as above (Fig. 1a). For control purposes, photographs were taken at × 20 magnification as above. Neuronal differentiation was determined by measuring red fluorescence (excitation 568 nm, emission 603 nm) in a multiwell-plate reader (Infinite 200, TECAN, Germany). As a confirmation of the viability data, cell number was also quantified by measuring DAPI fluorescence (excitation 350 nm, emission 488 nm).

In series [3] the test system is NT2 precursor cells. Format: cell-based, human. As to conditions: for DNT (IC50 ratio), migration: positive when IC50 ratio is larger than threshold 2.30; for DNT (sign diff), migration: positive when at least one concentration where specific endpoint differs significantly from control and from unspecific endpoint. The protocol:
As established before (Stern et al. [2014]), NT2 precursor cells were seeded in 96-mm bacteriological grade Petri dishes (Greiner, Hamburg, Germany) at a density of 4 × 10^6–5 × 10^6 cells per dish. Within 24 h, cells formed free-floating spherical aggregates of 300–800 µm diameter. On the first day, 10 ml of culture medium was added to each Petri dish. On the next days, medium with 10 μM retinoic acid (RA) was added and changed every 2–3 days by transferring the cell suspension to centrifuge tubes and centrifuge at 200 × g for 7 min. After 9 days in culture, aggregates were gently resuspended using a Pasteur pipette, and seeded at 60,000 cells per well into black 96-well plates with flat transparent bottom (Nunc). Plates were lined with poly-D-lysine and laminin (10 µg/ml each), equipped with silicone stoppers from the Oris Cell Migration Assay (AMS Biotechnology, Abingdon, UK). Cells were allowed to adhere overnight. On the next day, stoppers were pulled leaving a monolayer of cells with a circular hole of 2-mm diameter. […] After one wash in PBS, cells were fixed for 15 min in PFA, washed twice in PBS-T and stained with DAPI (0.5 µg/ml) for 5 min, followed by two washes in PBS. A black 96-hole plastic mask leaving a central circular area of 2-mm diameter for each well was clipped to the bottom of the plate. This allows viewing only those cells that had migrated into the free areas left by the silicone stoppers during seeding (Fig. 1b). Migration was quantified by taking two photographs of each well and measuring the distance of the migration front from the black margin of the mask in using ImageJ. Occasional asymmetries caused by slight inaccuracies of silicone stopper placement were compensated by averaging measurements in four quadrants per well. […] Average null-migration values were subtracted from migrated distance before evaluation.

Series [4] relates to differentiating NT2 cells. As to conditions: unspecific compounds; ref Stern et al. (2014) Arch. Toxicol. 88: 127–136; cited from earlier work.
Where [5] appears, read: threshold of prediction model 2.02.
Where [6] appears, read: threshold of prediction model 2.77.
[7] abbreviates: threshold of prediction model 2.30.

Where two headings read alike, the source gives them in different places.

With `O=CC[C@@H](O)[C@H](O)[C@H](O)CO` [2DG, 2-desoxy glucose], the “IC50 ratio (IC50 unspecific/IC50 specific), neurite outgrowth” value with NT2 neurons (setting [5]) is given as 1,29.
For `CC(=O)Nc1ccc(O)cc1` [AAP, acetaminophen (paracetamol)], the “IC50 ratio (IC50 unspecific/IC50 specific), migration” value in the series with NT2 precursor cells [1] is on record as 1,21.
In the case of `N#Cc1nn(-c2c(Cl)cc(C(F)(F)F)cc2Cl)c(N)c1S(=O)(=O)C(F)(F)F` [Fipronil sulfone, 5-Amino-1-[2,6-dichloro-4-(trifluoromethyl)phenyl]-4-(trifluoromethylsulfonyl)pyrazole-3-carbonitrile], in the series with NT2 neurons, the “DNT (IC50 ratio), neurite outgrowth” value is given as “No” and the “DNT (sign diff), neurite outgrowth” value was “No”. Also, the “IC50 ratio (IC50 unspecific/IC50 specific), neurite outgrowth” value with NT2 neurons (setting [5]) is 1.27. Moreover, in series [2], the “DNT (IC50 ratio), neuronal differentiation” value is reported as “No” and the “DNT (sign diff), neuronal differentiation” value is “Yes”. Moreover, the “IC50 ratio (IC50 unspecific/IC50 specific), neuronal differentiation” value in series [2] (setting [6]) is 1.62. Further, in the series with NT2 precursor cells [3], the “DNT (IC50 ratio), migration” value is “Yes” and the “DNT (sign diff), migration” value was “Yes”. The “IC50 ratio (IC50 unspecific/IC50 specific), migration” value in the series on NT2 precursor cells [3] (setting [7]) was 4.41.
Take `N#Cc1nn(-c2c(Cl)cc(C(F)(F)F)cc2Cl)c(N)c1[S+]([O-])C(F)(F)F` (stereo not drawn) [Fipronil, 5-Amino-1-[2,6-dichloro-4-(trifluoromethyl)phenyl]-4-(trifluoromethylsulfinyl)pyrazole-3-carbonitrile]: in the series on NT2 neurons, the “DNT (IC50 ratio), neurite outgrowth” value was “No” and the “DNT (sign diff), neurite outgrowth” value is “No”. Besides, in the series with NT2 neurons (setting [5]), the “IC50 ratio (IC50 unspecific/IC50 specific), neurite outgrowth” value was 1.0. The “IC50 ratio (IC50 unspecific/IC50 specific), neurite outgrowth” value in the series with NT2 neurons (threshold of prediction model 2.02, listed as fipronil) is 1. Further, in series [2], the “DNT (IC50 ratio), neuronal differentiation” value is recorded as “No” and the “DNT (sign diff), neuronal differentiation” value was “Yes”. In addition, in series [2] (setting [6]), the “IC50 ratio (IC50 unspecific/IC50 specific), neuronal differentiation” value is 1.58. In addition, the “IC50 ratio (IC50 unspecific/IC50 specific), neuronal differentiation” value in series [2] (threshold of prediction model 2.77, listed as fipronil) is 1.57. For the same molecule, the “IC50 ratio (IC50 unspecific/IC50 specific), migration” value with NT2 precursor cells [3] (setting [7]) is listed as 2.49.
Consider `N[C@@H](CCC(=O)[O-])C(=O)O.[Na+]` [Glu, sodium glutamate], for which the “IC50 ratio (IC50 unspecific/IC50 specific), neuronal differentiation” value in series [4] was 1,96. Moreover, the “IC50 ratio (IC50 unspecific/IC50 specific), migration” value in the series with NT2 precursor cells [1] was 1,09.
In the case of `OO` [H2O2, hydrogen peroxide], the “IC50 ratio (IC50 unspecific/IC50 specific), neurite outgrowth” value in the series on NT2 neurons was 1,63. Further, in series [2], the “IC50 ratio (IC50 unspecific/IC50 specific), neuronal differentiation” value is given as 1,09. Besides, the “IC50 ratio (IC50 unspecific/IC50 specific), migration” value in the series with NT2 precursor cells [3] is 1,71.
As to `CC(=O)N[C@@H](CS)C(=O)O` [NAC, (2R)-2-Acetamido-3-sulfanylpropanoic acid], the “IC50 ratio (IC50 unspecific/IC50 specific), neurite outgrowth” value in the series with NT2 neurons (setting [5]) is 1,00. In series [2] (setting [6]), the “IC50 ratio (IC50 unspecific/IC50 specific), neuronal differentiation” value was 1,00. In addition, the “IC50 ratio (IC50 unspecific/IC50 specific), migration” value in the series with NT2 precursor cells [3] (setting [7]) is reported as 1,37.
Turning to `CC1(C)S[C@@H]2[C@H](NC(=O)Cc3ccccc3)C(=O)N2[C@H]1C(=O)O` [PG, penicillin G], the “IC50 ratio (IC50 unspecific/IC50 specific), neurite outgrowth” value with NT2 neurons (setting [5]) is reported as 1,00. The “IC50 ratio (IC50 unspecific/IC50 specific), neuronal differentiation” value in series [4] was 1,15. For the same molecule, the “IC50 ratio (IC50 unspecific/IC50 specific), migration” value with NT2 precursor cells [1] was 1,74.
For `C=C(C)[C@H]1Cc2c(ccc3c2O[C@@H]2COc4cc(OC)c(OC)cc4[C@@H]2C3=O)O1` [Rotenone, (1S,6R,13S)-16,17-Dimethoxy-6-prop-1-en-2-yl-2,7,20-trioxapentacyclo[11.8.0.0^3,11.0^4,8.0^14,19]henicosa-3(11),4(8),9,14,16,18-hexaen-12-one], in the series with NT2 neurons, the “DNT (IC50 ratio), neurite outgrowth” value is “Yes” and the “DNT (sign diff), neurite outgrowth” value is listed as “Yes”. The “IC50 ratio (IC50 unspecific/IC50 specific), neurite outgrowth” value in the series with NT2 neurons (setting [5]) is 18.16. In series [2], the “DNT (IC50 ratio), neuronal differentiation” value was “Yes” and the “DNT (sign diff), neuronal differentiation” value was “Yes”. Moreover, in series [2] (setting [6]), the “IC50 ratio (IC50 unspecific/IC50 specific), neuronal differentiation” value was 19.3. Further, in the series on NT2 precursor cells [3], the “DNT (IC50 ratio), migration” value is on record as “Yes” and the “DNT (sign diff), migration” value was “Yes”. For the same molecule, the “IC50 ratio (IC50 unspecific/IC50 specific), migration” value in the series with NT2 precursor cells [3] (setting [7]) is 6.59.
As for `CC(C)=CCC/C(C)=C/CC/C(C)=C/CC[C@]1(C)CCc2c(C)c(O)c(C)c(C)c2O1` [α-tocotrienol, (2R)-2,5,7,8-Tetramethyl-2-[(3E,7E)-4,8,12-trimethyltrideca-3,7,11-trienyl]-3,4-dihydrochromen-6-ol], the “IC50 ratio (IC50 unspecific/IC50 specific), neurite outgrowth” value in the series with NT2 neurons (setting [5]) is given as 1,00. Also, in series [2] (setting [6]), the “IC50 ratio (IC50 unspecific/IC50 specific), neuronal differentiation” value was 1,84.
